The record followed here is US5807985A (priority 1997, dated 1998).

HELM strings list residues between dots; [ac] is acetyl, [am] amide, other brackets name non-standard units.

A short description of this data set: general procedure: Fmoc solid-phase peptide synthesis. The note with it: whole synthesis, HPLC.

Consider “PEPTIDE1{[GAB].[D-Mrp].[D-Mrp].F.K.[am]}$$$$V2.0”, for which the “purity (crude or final not stated)” value is recorded as 98.0%.

As for “PEPTIDE1{[GAB].[D-Mrp].[D-Mrp].[D-Mrp].K.[am]}$$$$V2.0”, the “purity (crude or final not stated)” value is recorded as 99.0%.

For the substance “PEPTIDE1{[GAB].[D-Mrp].[D-bNal].F.K.[am]}$$$$V2.0”, the “purity (crude or final not stated)” value was determined as 99.0%.

As for “PEPTIDE1{[GAB].[D-Mrp].[D-Mrp].[Mrp].K.[am]}$$$$V2.0”, the “purity (crude or final not stated)” value is 98.0%.
